No constants are given. Whether binding was seen depends on the method and setting. In cells and extracts the contact can be indirect. Some entries that bind do so weakly or less than the wild type.
Biological target: CUL4B (human (endogenous in NT2)) (UniProt Q13620)
Experiment: co-IP; whole NT2 cell extract; 800 μg lysate with 2 μg CUL4B antibody 3-4 h at 4 °C, Protein A/G Sepharose beads; normal rabbit IgG as control; western blot with anti-CUL4B and anti-RORγ antibodies

Chains of the proteins cited; added tags and fusions are not shown.
UniProt Q13620: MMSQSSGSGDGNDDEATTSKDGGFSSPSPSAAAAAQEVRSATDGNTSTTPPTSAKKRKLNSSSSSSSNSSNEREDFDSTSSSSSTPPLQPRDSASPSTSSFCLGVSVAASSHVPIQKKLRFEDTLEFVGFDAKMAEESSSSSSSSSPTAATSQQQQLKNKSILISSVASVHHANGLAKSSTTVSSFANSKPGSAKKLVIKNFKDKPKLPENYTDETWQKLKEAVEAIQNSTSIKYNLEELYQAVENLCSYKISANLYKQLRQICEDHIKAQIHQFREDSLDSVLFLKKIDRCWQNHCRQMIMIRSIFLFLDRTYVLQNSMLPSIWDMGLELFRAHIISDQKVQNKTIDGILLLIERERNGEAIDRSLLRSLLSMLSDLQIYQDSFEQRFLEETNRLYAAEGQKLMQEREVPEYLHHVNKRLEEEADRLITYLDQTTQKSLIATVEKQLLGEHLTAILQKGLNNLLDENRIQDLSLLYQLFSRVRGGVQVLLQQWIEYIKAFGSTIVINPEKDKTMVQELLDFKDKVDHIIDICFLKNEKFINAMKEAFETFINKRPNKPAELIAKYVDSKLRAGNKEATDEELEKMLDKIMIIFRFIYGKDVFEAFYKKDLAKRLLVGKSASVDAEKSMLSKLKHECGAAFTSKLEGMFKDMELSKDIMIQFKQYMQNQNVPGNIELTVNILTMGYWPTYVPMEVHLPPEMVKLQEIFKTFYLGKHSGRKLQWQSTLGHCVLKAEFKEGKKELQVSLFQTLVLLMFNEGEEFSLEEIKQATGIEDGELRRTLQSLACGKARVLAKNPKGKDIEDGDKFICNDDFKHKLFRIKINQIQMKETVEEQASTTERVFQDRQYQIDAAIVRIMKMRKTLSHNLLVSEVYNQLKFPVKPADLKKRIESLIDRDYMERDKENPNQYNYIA
UniProt P51449: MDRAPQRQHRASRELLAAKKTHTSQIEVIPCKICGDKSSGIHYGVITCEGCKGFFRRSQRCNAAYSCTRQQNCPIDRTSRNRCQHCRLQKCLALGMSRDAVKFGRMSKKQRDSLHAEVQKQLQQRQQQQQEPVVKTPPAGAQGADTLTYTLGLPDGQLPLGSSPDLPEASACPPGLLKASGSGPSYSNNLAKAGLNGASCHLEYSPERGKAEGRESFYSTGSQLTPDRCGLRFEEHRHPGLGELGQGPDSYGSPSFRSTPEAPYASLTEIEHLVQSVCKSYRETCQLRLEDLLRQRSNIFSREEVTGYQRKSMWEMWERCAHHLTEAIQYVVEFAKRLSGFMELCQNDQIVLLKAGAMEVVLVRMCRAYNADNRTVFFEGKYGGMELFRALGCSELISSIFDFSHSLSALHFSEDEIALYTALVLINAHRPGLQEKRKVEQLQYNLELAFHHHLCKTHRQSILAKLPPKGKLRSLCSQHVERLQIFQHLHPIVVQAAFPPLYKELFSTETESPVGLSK

retinoic acid-related orphan nuclear receptor gamma (from UniProt P51449 1-518)
binding: binds
